The results in this text go back to ChEMBL document CHEMBL3868603, “Synthesis and evaluation of naphthyl bearing 1,2,3-triazole analogs as antiplasmodial agents, cytotoxicity and docking studies” (Bioorg Med Chem, 2017).

The data set in a line: Cytotoxicity against HEK293 cells assessed as decrease in cell viability after 48 hrs by MTT assay. Type of data set: toxicity, cell-based. As to conditions: human. The procedure, abridged: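 HEK-293 in MEM with 10% FBS, seeded 10,000 cells/well, 24 h at 37°C, 5% CO2; treated 1–100 µM in triplicate with DMSO control and doxorubicin reference, 48 h. MTT added 1 h, dried, DMSO dissolved, absorbance 562 nm; IC50 as 50% absorbance reduction versus control, mean ± SD of three independent experiments.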
Background: Tetrazolium assays rely on reduction of a dye to a coloured formazan, in cell work by metabolically active cells.

As a reminder, the IC50 is the midpoint of a concentration-inhibition curve. On to `COc1cccc2c1C(=O)c1c(O)c3c(c(O)c1C2=O)C[C@@](O)(C(=O)CO)C[C@@H]3O[C@H]1C[C@H](N)[C@H](O)[C@H](C)O1` [DOXORUBICIN], for which the IC50 at 48 h was 3.13 µM.
